In publication PMC5381698, “A Quaternary Mechanism Enables the Complex Biological Functions of Octameric Human UDP-glucose Pyrophosphorylase, a Key Enzyme in Cell Metabolism” (Scientific Reports, 2015):
Positions count from the first letter of the chain named. Names and notes keep the numbering of the source. No constants are given. Whether binding was seen depends on the method and setting. Some entries that bind do so weakly or less than the wild type. Tags and fused reporters may be left off the sequences shown. Each block holds one binder with its values, some of them ahead of it.

Key:
Test in all cases: SEC; Superdex 200 10/300 GL; 50 mM HEPES pH 7.5, 5 mM MgCl2, 100 mM NaCl; data not shown; both purified
[1] = biological target: T1, human UDP-glucose pyrophosphorylase isoform 1, wild type, StrepII-tagged (human), Q16851; settings: remark: other sources report otherwise
T1 chain: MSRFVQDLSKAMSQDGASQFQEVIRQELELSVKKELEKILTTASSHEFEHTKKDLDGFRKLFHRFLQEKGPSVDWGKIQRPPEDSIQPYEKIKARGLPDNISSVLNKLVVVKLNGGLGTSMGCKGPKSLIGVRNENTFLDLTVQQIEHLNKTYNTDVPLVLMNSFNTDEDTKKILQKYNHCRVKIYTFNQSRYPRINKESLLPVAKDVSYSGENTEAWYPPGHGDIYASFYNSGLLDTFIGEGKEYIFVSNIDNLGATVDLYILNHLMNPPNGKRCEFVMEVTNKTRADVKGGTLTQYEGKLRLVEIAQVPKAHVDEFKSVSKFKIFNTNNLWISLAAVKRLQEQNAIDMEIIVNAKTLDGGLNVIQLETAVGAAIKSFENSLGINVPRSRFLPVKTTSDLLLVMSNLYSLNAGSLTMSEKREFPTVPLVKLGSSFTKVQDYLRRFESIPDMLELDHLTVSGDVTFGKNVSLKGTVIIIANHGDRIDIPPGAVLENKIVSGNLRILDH

[2] = biological target: human UDP-glucose pyrophosphorylase isoform 1, mutant R287L, StrepII-tagged (human) (UniProt Q16851)
[3] = biological target: human UDP-glucose pyrophosphorylase isoform 1, double mutant R287E/D456K, StrepII-tagged (human) (UniProt Q16851)
[4] = biological target: human UDP-glucose pyrophosphorylase isoform 1, double mutant R287L/D456K, StrepII-tagged (human) (UniProt Q16851)
[5] = biological target: human UDP-glucose pyrophosphorylase isoform 1, mutant D456K, StrepII-tagged (human) (UniProt Q16851)
[6] = biological target: human UDP-glucose pyrophosphorylase isoform 1, mutant R287E, StrepII-tagged (human) (UniProt Q16851)

binding [1]: binds
B1: human UDP-glucose pyrophosphorylase isoform 1, wild type, StrepII-tagged, Q16851 1-508 (enzyme)
chain: T1 chain

binding [2]: binds
B2: human UDP-glucose pyrophosphorylase isoform 1, mutant R287L, StrepII-tagged (enzyme, UniProt Q16851 1-508, looked up)
chain: T1 chain with R287L

binding [3]: binds
B3: human UDP-glucose pyrophosphorylase isoform 1, double mutant R287E/D456K, StrepII-tagged (enzyme, UniProt Q16851 1-508, looked up)
chain: T1 chain with R287E, D456K

binding [4]: binds
B4: human UDP-glucose pyrophosphorylase isoform 1, double mutant R287L/D456K, StrepII-tagged (enzyme, UniProt Q16851 1-508, looked up)
chain: T1 chain with R287L, D456K

binding [5]: binds
B5: human UDP-glucose pyrophosphorylase isoform 1, mutant D456K, StrepII-tagged (enzyme, UniProt Q16851 1-508, looked up)
chain: T1 chain with D456K

binding [6]: binds
B6: human UDP-glucose pyrophosphorylase isoform 1, mutant R287E, StrepII-tagged (enzyme, UniProt Q16851 1-508, looked up)
chain: T1 chain with R287E
